{"sequences": {"note": "Chains of the proteins cited; added tags and fusions are not shown.", "UniProt O75396": "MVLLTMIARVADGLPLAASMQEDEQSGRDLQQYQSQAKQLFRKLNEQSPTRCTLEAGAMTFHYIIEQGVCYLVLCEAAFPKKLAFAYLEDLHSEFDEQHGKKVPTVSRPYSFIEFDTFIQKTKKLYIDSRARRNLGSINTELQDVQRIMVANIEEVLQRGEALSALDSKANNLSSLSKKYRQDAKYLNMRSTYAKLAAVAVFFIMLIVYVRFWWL"}, "source": "paper doi:10.1101/2022.04.12.487993", "key": {"EGFP-ORP5": {"target": "T1, EGFP-ORP5 (UniProt Q9H0X9)", "T1 sequence": "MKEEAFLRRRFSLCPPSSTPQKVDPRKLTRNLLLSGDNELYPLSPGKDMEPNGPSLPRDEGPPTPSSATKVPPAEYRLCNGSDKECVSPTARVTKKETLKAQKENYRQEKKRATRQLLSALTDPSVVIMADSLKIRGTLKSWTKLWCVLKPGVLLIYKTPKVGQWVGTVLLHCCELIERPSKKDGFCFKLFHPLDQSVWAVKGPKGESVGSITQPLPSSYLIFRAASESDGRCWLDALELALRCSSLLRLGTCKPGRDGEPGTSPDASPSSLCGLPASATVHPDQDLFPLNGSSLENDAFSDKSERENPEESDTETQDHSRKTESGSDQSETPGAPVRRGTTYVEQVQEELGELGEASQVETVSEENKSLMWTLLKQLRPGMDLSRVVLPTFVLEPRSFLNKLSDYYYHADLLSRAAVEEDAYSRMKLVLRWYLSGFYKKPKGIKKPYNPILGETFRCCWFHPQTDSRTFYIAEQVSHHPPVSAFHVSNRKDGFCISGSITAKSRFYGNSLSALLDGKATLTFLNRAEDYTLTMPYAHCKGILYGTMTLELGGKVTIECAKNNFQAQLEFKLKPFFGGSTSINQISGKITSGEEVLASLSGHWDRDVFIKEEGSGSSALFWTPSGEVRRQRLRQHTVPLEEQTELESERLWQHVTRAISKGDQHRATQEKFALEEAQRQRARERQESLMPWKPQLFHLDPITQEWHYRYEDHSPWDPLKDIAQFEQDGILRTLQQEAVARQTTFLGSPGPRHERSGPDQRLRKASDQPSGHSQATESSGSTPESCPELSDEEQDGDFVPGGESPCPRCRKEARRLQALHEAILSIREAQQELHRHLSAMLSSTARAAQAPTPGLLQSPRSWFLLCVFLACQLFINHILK", "experiment": "co-IP"}, "EGFP-ORP8": {"target": "T2, EGFP-ORP8 (UniProt Q9BZF1)", "T2 sequence": "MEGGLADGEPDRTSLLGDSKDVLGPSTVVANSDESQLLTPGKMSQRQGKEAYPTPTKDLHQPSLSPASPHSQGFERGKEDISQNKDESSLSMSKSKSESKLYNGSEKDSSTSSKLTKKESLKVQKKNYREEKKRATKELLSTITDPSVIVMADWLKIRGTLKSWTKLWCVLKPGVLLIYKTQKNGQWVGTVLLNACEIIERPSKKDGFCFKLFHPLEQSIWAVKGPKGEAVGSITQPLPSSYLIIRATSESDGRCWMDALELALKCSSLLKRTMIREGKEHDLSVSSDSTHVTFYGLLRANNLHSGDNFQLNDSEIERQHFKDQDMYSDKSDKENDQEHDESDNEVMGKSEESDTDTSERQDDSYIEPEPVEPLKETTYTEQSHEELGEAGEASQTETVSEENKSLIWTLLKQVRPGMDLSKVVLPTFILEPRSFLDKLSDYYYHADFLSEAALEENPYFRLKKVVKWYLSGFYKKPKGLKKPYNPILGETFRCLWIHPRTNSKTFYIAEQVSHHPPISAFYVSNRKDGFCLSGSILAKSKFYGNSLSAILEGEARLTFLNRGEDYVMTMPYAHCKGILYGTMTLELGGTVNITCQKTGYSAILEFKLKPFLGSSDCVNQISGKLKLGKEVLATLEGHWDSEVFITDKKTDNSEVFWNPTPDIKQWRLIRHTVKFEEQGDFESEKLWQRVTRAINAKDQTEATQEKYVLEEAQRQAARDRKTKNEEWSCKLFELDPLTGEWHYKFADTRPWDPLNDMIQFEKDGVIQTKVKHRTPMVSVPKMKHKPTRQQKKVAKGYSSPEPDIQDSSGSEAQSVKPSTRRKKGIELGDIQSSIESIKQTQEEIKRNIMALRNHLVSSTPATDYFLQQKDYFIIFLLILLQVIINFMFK", "experiment": "co-IP"}}, "note": "These are yes or no findings as the source states them, for the method shown. Binding seen in cells or lysates may run through a third protein. Some entries that bind do so weakly or less than the wild type. Sequences can lack the tags named with a protein."}
{"substance": "FLAG-Sec22b (from UniProt O75396 1-215)", "values": [{"measurement": "binding", "setting": "EGFP-ORP5", "value": "binds"}, {"measurement": "binding", "setting": "EGFP-ORP8", "value": "binds"}]}
